Source: EP4582451A1
Residue numbers refer to the chain shown, from its start. Results are given in words; binding and its absence hold for the method and conditions named. Some binding calls cover weakened binding; strength is not graded here. Each block holds one binder with its values, some of them ahead of it.

Chains of the proteins cited; added tags and fusions are not shown. Lines headed by an entry give the natural chain unless they say otherwise; changes in a name come on top.
UniProt P55899: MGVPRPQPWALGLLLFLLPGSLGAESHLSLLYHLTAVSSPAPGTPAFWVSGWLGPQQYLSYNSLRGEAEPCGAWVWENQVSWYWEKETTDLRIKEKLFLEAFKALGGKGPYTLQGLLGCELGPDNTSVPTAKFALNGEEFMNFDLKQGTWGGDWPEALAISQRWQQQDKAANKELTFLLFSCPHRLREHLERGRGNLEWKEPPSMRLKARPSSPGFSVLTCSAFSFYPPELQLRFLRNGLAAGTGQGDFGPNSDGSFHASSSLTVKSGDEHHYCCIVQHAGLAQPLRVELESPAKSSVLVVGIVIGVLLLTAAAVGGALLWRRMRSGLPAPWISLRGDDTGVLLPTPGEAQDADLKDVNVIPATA
UniProt P61769: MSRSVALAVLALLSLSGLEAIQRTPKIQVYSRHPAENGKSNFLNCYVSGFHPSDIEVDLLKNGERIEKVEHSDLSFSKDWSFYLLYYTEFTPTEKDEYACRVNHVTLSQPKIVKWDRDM

Target: hFcRn-Avi (Biosystems, FCM-H82W7) (human (printed as hFcRn)) (UniProt P55899+P61769)
Assay: SPR (Biacore 8K+), hFcRn-Avi captured on SA chip, pH 6.0

binding: binds
B1: hAb01_G4P_V1 (antibody, human IgG4 S228P, kappa)
heavy: EVQLVESGGGLVKPGGSLRLSCAASGFTLSDYYIYWVRQAPGKGLEWVATISDAVIYTYYADSVKGRFTISRDNAKNSLYLQMNSLRAEDTAVYFCARAYGSSEVMDYWGQGTLVTVSSASTKGPSVFPLAPCSRSTSESTAALGCLVKDYFPEPVTVSWNSGALTSGVHTFPAVLQSSGLYSLSSVVTVPSSSLGTKTYTCNVDHKPSNTKVDKRVESKYGPPCPPCPAPEFLGGPSVFLFPPKPKDTLYITREPEVTCVVVDVSQEDPEVQFNWYVDGVEVHNAKTKPREEQFNSTYRVVSVLTVLHQDWLNGKEYKCKVSNKGLPSSIEKTISKAKGQPREPQVYTLPPSQEEMTKNQVSLTCLVKGFYPSDIAVEWESNGQPENNYKTTPPVLDSDGSFFLYSRLTVDKSRWQEGNVFSCSVMHEALHNHYTQKSLSLSLGK
light: EIVLTQSPATLSLSPGERATLSCSASSSVSYMHWYQQKPGQAPKRWIYDTSKLASGVPARFSGSGSGTDYTLTISSLEPEDFAVYYCQQWSSNPWTFGGGTKLEIKRTVAAPSVFIFPPSDEQLKSGTASVVCLLNNFYPREAKVQWKVDNALQSGNSQESVTEQDSKDSTYSLSSTLTLSKADYEKHKVYACEVTHQGLSSPVTKSFNRGEC

binding: binds
B2: hAb01_G4P_V2 (antibody, human IgG4 S228P, kappa)
heavy: B1 heavy with L234E
light: B1 light
